Laboratory results as given in patent US20240343794A1 (UNITED KINGDOM RESEARCH AND INNOVATION, published 2024).
These are yes or no findings as the source states them, for the method shown. Some binding calls cover weakened binding; strength is not graded here.

Amino acid sequences for entries named in this document (tags omitted). Residues count along the entry.
UniProt Q9JIP3, residues 18-499: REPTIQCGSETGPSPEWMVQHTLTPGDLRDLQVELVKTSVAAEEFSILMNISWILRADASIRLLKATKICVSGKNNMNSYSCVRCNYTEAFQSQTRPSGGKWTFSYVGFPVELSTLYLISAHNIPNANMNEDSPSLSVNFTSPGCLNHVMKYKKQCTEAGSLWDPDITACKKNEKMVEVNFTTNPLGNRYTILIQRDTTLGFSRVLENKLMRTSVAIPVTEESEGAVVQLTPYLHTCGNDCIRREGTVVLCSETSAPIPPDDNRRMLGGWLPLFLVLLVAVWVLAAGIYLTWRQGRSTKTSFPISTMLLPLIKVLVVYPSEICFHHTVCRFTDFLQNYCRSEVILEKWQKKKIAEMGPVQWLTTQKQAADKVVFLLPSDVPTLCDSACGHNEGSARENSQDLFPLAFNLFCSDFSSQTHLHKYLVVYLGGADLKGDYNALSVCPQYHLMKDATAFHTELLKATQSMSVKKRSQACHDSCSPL

Experiments:
[1] = target: mouse IL-25R (IL-17BR) on ILC2s from Apc1322T/+ mouse tumours and adjacent lamina propria (mouse) (UniProt Q9JIP3); assay: Flow cytometry of ILC2s from paired tumours and adjacent lamina propria of Apc1322T/+ mice, stained with D9.2-AF647. Readouts are percent positive cells and geometric mean fluorescence relative to isotype control. [cont) j]
[2] = target: mouse IL-25R (IL-17BR) on ILC2s from Apc1322T/+ mouse tumours and adjacent lamina propria (mouse) (UniProt Q9JIP3); assay: Flow cytometry of ILC2s from Apc1322T/+ mouse tumour and adjacent lamina propria, stained with D9.2-AF647 (x axis) against ST2-AF488 (y axis). [cont) i]

- binding [1]: binds
- binding [2]: binds
B1: anti-IL25R monoclonal antibody (clone D9.2) (antibody, V domains shown)
VH: QVQLQQPGAELVRPGASVKLSCKTSGYTFISYWMNWVKQGPEQGLEWIGRIDPYDSEIQYNQKFKDKAILTVDKSSSAAYMQLISLTSEDSAVYYCARSGGFDWFAYWGQGTLVTVSA
VL: DIQMTQSPASLSVSVGETVTITCRASENINSNLAWYQQKKGKSPQLLVYDVTNLADGVPSRFSGSGSGTQYSLKINSLQSEDFGSYYCQHFWRPPYTFGGGTNLEIK
notes: Murine antibody; also called IL17BR (D9.2, AF647); IL17BR (D9.2, biotin)
